According to PMC8688422:
No constants are given. Whether binding was seen depends on the method and setting. Some binding calls cover weakened binding; strength is not graded here.

Chains of the proteins cited; added tags and fusions are not shown. Residues count along the entry.
UniProt P13501, residues 24-91: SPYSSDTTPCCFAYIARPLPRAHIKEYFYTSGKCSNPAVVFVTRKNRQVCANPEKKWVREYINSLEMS
UniProt P09382, residues 2-135: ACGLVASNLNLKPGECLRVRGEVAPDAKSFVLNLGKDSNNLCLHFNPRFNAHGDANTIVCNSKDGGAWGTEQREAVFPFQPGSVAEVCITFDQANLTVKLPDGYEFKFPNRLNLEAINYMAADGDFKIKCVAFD

Target: CCL5 (RANTES) (UniProt P13501)
Test: far-Western, overlay or dot blot; spot blot: 3 µg of each protein spotted on nitrocellulose, incubated 1 h with 1 µg/mL recombinant galectin-1 or galectin-9 in PBS/0.1% Tween, bound galectin detected with anti-galectin antibody; both purified

galectin-1 (from UniProt P09382 2-135)
binding: binds

galectin-9 (from UniProt O00182 1-355)
binding: binds
